Assay [1] deals with T1, N-venus:AGO2 (Arabidopsis thaliana) (UniProt Q9SHF3).
T1 sequence: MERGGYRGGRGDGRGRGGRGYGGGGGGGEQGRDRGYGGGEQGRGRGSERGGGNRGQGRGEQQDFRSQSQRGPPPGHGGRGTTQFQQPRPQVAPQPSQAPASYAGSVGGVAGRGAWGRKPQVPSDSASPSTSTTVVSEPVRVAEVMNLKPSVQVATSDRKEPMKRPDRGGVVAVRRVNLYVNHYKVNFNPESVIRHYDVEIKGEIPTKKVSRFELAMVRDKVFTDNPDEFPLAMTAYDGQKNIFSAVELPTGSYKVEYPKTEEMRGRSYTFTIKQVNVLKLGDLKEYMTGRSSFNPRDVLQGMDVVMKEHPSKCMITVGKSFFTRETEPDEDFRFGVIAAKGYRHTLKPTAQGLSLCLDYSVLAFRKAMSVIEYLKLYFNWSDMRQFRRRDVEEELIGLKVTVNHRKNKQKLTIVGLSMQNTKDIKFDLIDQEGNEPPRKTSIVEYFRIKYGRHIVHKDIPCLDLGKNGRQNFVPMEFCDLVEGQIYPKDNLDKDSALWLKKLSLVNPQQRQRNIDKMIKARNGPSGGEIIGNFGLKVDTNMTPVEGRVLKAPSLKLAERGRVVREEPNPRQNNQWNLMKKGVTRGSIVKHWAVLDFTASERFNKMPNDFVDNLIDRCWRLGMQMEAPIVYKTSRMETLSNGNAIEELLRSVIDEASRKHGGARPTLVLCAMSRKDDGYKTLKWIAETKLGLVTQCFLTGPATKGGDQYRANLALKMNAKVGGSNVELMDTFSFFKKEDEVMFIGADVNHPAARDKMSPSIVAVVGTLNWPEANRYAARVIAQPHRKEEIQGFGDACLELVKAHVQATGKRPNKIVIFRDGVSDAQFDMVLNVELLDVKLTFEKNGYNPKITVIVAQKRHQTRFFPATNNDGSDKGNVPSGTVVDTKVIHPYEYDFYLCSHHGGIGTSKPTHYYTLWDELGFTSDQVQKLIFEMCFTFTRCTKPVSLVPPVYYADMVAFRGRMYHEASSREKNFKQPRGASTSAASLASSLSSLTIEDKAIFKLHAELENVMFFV
The assay is described as follows: split reporter; BiFC with nVenus and cCFP fusions co-infiltrated into N. benthamiana leaves; confocal microscopy of leaf epidermal cells after 60-70 h.

Assay [2] addresses T2, GST:Δ170 AGO2 (Arabidopsis thaliana) (UniProt Q9SHF3).
T2 sequence: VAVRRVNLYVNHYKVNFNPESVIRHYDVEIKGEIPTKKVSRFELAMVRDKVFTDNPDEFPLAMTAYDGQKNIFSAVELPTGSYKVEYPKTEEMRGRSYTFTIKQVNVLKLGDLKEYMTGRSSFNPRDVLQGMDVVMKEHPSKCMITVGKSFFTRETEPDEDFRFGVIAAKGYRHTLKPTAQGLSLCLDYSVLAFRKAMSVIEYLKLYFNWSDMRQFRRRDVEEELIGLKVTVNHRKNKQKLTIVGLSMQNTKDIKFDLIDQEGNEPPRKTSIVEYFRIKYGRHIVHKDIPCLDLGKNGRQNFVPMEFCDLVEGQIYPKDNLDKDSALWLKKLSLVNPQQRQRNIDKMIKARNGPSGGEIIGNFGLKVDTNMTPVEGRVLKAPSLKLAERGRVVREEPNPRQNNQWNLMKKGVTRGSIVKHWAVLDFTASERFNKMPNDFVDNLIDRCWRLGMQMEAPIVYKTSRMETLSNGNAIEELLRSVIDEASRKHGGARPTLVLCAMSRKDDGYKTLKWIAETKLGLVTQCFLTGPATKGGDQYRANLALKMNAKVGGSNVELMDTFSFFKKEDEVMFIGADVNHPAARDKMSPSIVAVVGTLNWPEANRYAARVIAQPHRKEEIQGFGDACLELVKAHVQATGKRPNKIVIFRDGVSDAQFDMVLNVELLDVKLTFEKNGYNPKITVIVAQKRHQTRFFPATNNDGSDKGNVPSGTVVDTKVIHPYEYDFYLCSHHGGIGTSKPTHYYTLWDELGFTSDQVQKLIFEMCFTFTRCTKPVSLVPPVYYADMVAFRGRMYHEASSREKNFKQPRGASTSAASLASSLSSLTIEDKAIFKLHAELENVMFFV
The assay is described as follows: pull-down; matrix-bound GST-fusion proteins incubated with E. coli extracts containing HIS:PRMT5, 4 °C, 2 h; washed with 20 mM Tris/HCl pH 7.5, 150 mM NaCl, 5 mM EDTA, 1% Nonidet P-40, 0.5% sodium deoxycholate; anti-GST and anti-histidine blots; only the target purified.

Assay [3] concerns the target T3, GST:AGO2 (full-length, recombinant) (Arabidopsis thaliana) (UniProt Q9SHF3).
T3 sequence: T1 sequence
The assay is described as above.

In assay [4] the target is T4, GST:N170 AGO2 (Arabidopsis thaliana) (UniProt Q9SHF3).
T4 sequence: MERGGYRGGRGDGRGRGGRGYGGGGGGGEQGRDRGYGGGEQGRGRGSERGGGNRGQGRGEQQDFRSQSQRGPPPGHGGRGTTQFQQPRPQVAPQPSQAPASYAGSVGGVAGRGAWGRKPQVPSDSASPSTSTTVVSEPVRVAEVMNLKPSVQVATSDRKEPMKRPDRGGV
The assay is described as above.

The target in assay [5] is Flag:PRMT5 (Arabidopsis thaliana). Briefly: co-IP; transient co-expression in N. benthamiana; immunoprecipitated with anti-Flag antibody, blots probed with anti-Flag and anti-HA; extraction and wash buffers 20 mM Tris-HCl pH 7.5, 300 mM NaCl, 5 mM MgCl2, 4 °C.

No constants are given. Whether binding was seen depends on the method and setting. Binding seen in cells or lysates may run through a third protein. For some of these results: A result given as binding can be weak or reduced; the word gives no strength. For some of these results: Where a sequence is shown, tags or fusion partners need not be part of it.

We go through 5 molecules from publication PMC6381116.

On to “c-CFP:PRMT5 (Arabidopsis thaliana) (enzyme)”, for which the binding entry in assay [1] was “binds”. “HIS:PRMT5 (Arabidopsis thaliana) (enzyme)”: the binding result in assay [2] was “no binding”; in assay [3], “binds”; in assay [4] it was “binds”. Consider c-CFP:HSP90, for which, in assay [1], the binding result is on record as “binds”.

B1: HA:AGO10 (protein, UniProt Q9XGW1 1-988)
chain: MPIRQMKDSSETHLVIKTQPLKHHNPKTVQNGKIPPPSPSPVTVTTPATVTQSQASSPSPPSKNRSRRRNRGGRKSDQGDVCMRPSSRPRKPPPPSQTTSSAVSVATAGEIVAVNHQMQMGVRKNSNFAPRPGFGTLGTKCIVKANHFLADLPTKDLNQYDVTITPEVSSKSVNRAIIAELVRLYKESDLGRRLPAYDGRKSLYTAGELPFTWKEFSVKIVDEDDGIINGPKRERSYKVAIKFVARANMHHLGEFLAGKRADCPQEAVQILDIVLRELSVKRFCPVGRSFFSPDIKTPQRLGEGLESWCGFYQSIRPTQMGLSLNIDMASAAFIEPLPVIEFVAQLLGKDVLSKPLSDSDRVKIKKGLRGVKVEVTHRANVRRKYRVAGLTTQPTRELMFPVDENCTMKSVIEYFQEMYGFTIQHTHLPCLQVGNQKKASYLPMEACKIVEGQRYTKRLNEKQITALLKVTCQRPRDRENDILRTVQHNAYDQDPYAKEFGMNISEKLASVEARILPAPWLKYHENGKEKDCLPQVGQWNMMNKKMINGMTVSRWACVNFSRSVQENVARGFCNELGQMCEVSGMEFNPEPVIPIYSARPDQVEKALKHVYHTSMNKTKGKELELLLAILPDNNGSLYGDLKRICETELGLISQCCLTKHVFKISKQYLANVSLKINVKMGGRNTVLVDAISCRIPLVSDIPTIIFGADVTHPENGEESSPSIAAVVASQDWPEVTKYAGLVCAQAHRQELIQDLYKTWQDPVRGTVSGGMIRDLLISFRKATGQKPLRIIFYRDGVSEGQFYQVLLYELDAIRKACASLEPNYQPPVTFIVVQKRHHTRLFANNHRDKNSTDRSGNILPGTVVDTKICHPTEFDFYLCSHAGIQGTSRPAHYHVLWDENNFTADGIQSLTNNLCYTYARCTRSVSIVPPAYYAHLAAFRARFYLEPEIMQDNGSPGKKNTKTTTVGDVGVKPLPALKENVKRVMFYC
As for B1, the binding entry in assay [5] is “no binding”.

B2: HA:AGO2 (CaMV35S promoter, pMDC32) (protein, UniProt Q9SHF3 1-1014)
chain: T1 sequence
For the molecule B2, in assay [5], the binding entry is reported as “binds”.
